Results: patent US12535491B2, “Vaccine comprising protein-targeted (PT) extracellular DNA isolated from bacterial matrix” (priority 2018, dated 2026)

B1: ITIH1_HUMAN (protein, UniProt P19827 35-672, looked up)
Inter-alpha-trypsin inhibitor …: SKSSEKRQAVDTAVDGVFIRSLKVNCKVTSRFAHYVVTSQVVNTANEAREVAFDLEIPKTAFISDFAVTADGNAFIGDIKDKVTAWKQYRKAAISGENAGLVRASGRTMEQFTIHLTVNPQSKVTFQLTYEEVLKRNHMQYEIVIKVKPKQLVHHFEIDVDIFEPQGISKLDAQASFLPKELAAQTIKKSFSGKKGHVLFRPTVSQQQSCPTCSTSLLNGHFKVTYDVSRDKICDLLVANNHFAHFFAPQNLTNMNKNVVFVIDISGSMRGQKVKQTKEALLKILGDMQPGDYFDLVLFGTRVQSWKGSLVQASEANLQAAQDFVRGFSLDEATNLNGGLLRGIEILNQVQESLPELSNHASILIMLTDGDPTEGVTDRSQILKNVRNAIRGRFPLYNLGFGHNVDFNFLEVMSMENNGRAQRIYEDHDATQQLQGFYSQVAKPLLVDVDLQYPQDAVLALTQNHHKQYYEGSEIVVAGRIADNKQSSFKADVQAHGEGQEFSITCLVDEEEMKKLLRERGHMLENHVERLWAYLTIQELLAKRMKVDREERANLSSQALQMSLDYGFVTPLTSMSIRGMADQDGLKPTIDKPSEDSPPLEMLGPRRTFVLSALQPSPTHSSSNTQRLPDRVTGVDTD
B2: VTDB_HUMAN (protein, UniProt P02774 17-474, looked up)
Vitamin D-binding protein: LERGRDYEKNKVCKEFSHLGKEDFTSLSLVLYSRKFPSGTFEQVSQLVKEVVSLTEACCAEGADPDCYDTRTSALSAKSCESNSPFPVHPGTAECCTKEGLERKLCMAALKHQPQEFPTYVEPTNDEICEAFRKDPKEYANQFMWEYSTNYGQAPLSLLVSYTKSYLSMVGSCCTSASPTVCFLKERLQLKHLSLLTTLSNRVCSQYAAYGEKKSRLSNLIKLAQKVPTADLEDVLPLAEDITNILSKCCESASEDCMAKELPEHTVKLCDNLSTKNSKFEDCCQEKTAMDVFVCTYFMPAAQLPELPDVELPTNKDVCDPGNTKVMDKYTFELSRRTHLPEVFLSKVLEPTLKSLGECCDVEDSTTCFNAKGPLLKKELSSFIDKGQELCADYSENTFTEYKKKLAERLKAKLPDATPTELAKLVNKHSDFASNCCSINSPPLYCDSEIDAELKNIL

Tested on: heat-resistant proteins of human plasma
Assay: LC/MS of heat-resistant proteins in plasma after exposure to proteinase K and boiling

| Molecule | N-plasma + pK (LC/MS, healthy human blood plasma after incubation for 30 minutes with Proteinase K, following heating for 100° C. for 5 minutes (probe_2)) | N-plasma + pk (LC/MS, control plasma with added proteinase K, heated at 100° C. for 5 minutes) | Effect (N-plasma + pk vs N-plasma) (change on adding proteinase K to normal plasma) |
| --- | --- | --- | --- |
| B1 | 23 |  |  |
| B2 |  | 32 | ↑ |
